From article PMC8384837 come the findings set out here.

Holding throughout (conditions): yeast three-hybrid, YBZ-1, SC-Leu-His + 0.5 mM 3-AT, 4 days
The target of test [1] is T1, PUM1 PUF domain R3-THE R4-TFR C935T + R936H + Q939E + N971T + H972F + Q975R (UniProt Q14671).
T1 sequence: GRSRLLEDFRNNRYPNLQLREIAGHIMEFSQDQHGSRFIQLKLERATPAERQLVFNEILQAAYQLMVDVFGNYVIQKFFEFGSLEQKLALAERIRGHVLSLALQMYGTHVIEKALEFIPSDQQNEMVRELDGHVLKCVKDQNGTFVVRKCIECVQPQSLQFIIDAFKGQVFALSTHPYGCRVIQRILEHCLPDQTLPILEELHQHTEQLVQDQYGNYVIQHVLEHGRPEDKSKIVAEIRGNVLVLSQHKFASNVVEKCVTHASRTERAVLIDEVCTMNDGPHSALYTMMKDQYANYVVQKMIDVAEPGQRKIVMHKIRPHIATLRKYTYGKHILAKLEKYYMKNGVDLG

Test [2] has as its target T2, PUM1 PUF domain R3-THE R4-TFR R7-NPG C935T + R936H + Q939E + N971T + H972F + Q975R + S1079N + N1080P + E1083G (UniProt Q14671).
T2 sequence: T1 sequence with S252N, N253P, E256G

In test [3] the target is T3, PUM1 PUF domain R5-PHQ R6-SWD C1007P + R1008H + N1043S + Y1044W + Q1047D (UniProt Q14671).
T3 sequence: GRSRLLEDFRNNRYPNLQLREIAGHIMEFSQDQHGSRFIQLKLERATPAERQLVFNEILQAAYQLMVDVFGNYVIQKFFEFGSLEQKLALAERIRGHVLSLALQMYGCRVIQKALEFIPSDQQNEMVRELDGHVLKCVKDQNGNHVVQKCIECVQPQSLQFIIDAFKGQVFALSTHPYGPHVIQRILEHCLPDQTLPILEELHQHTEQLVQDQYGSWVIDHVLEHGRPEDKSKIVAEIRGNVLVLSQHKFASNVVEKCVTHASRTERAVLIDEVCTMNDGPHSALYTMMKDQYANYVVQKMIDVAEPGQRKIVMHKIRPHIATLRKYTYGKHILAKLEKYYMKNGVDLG

Test [4] has as its target T4, PUM1 PUF domain R6-SWD R7-NPG N1043S + Y1044W + Q1047D + S1079N + N1080P + E1083G (Homo sapiens) (UniProt Q14671).
T4 sequence: T3 sequence with P180C, H181R, S252N, N253P, E256G

The target in test [5] is T5, PUM1 PUF domain R3-THE R4-TFR R7-NPG C935T + R936H + Q939E + N971T + H972F + Q975R + S1079N + N1080P + E1083G (Homo sapiens) (UniProt Q14671).
T5 sequence: T1 sequence with S252N, N253P, E256G

Where a chain is given by its changes, count along the chain named. This is one part of the list. For some assays here: At the low end of the ranking the order means little. For some assays here: The exact form of the protein is not confirmed.

Regarding “GGCUAGAACUAGUGGAUCCCCCGGCGCCCGGCGGCUCGAGCCCGGGUAAGGUUAAAUCGUCUGCAUGCCGCCGGGCGCCAUGCCUGCAGGUCGACUCUAGAAAACAUG”, the binding signal (log2 enrichment (interaction score)) was -6.33 in test [1], -2.93 in test [2], -6.6 in test [3] and -1.86 in test [4].
In the case of “GGCUAGAACUAGUGGAUCCCCCGGCGCCCGGCGGCUCGAGCCCGGGUAAGUCGAAAGAGUCUGCAUGCCGCCGGGCGCCAUGCCUGCAGGUCGACUCUAGAAAACAUG”, the binding signal (log2 enrichment (interaction score)) in test [1] was -7.29; in test [3], under -7.33.
As for “GGCUAGAACUAGUGGAUCCCCCGGCGCCCGGCGGCUCGAGCCCGGGUAAGGGUAAGUCGUCUGCAUGCCGCCGGGCGCCAUGCCUGCAGGUCGACUCUAGAAAACAUG”, the values for the binding signal (log2 enrichment (interaction score)) in test [1], in test [2] and in test [3] were -6.48, -2.38 and under -8.01, respectively.
As to “GGCUAGAACUAGUGGAUCCCCCGGCGCCCGGCGGCUCGAGCCCGGGUAAGUGAACAAAGUCUGCAUGCCGCCGGGCGCCAUGCCUGCAGGUCGACUCUAGAAAACAUG”, the binding signal (log2 enrichment (interaction score)) is -6.87 in test [1] and -7.91 in test [3].
In the same order, the values of “GGCUAGAACUAGUGGAUCCCCCGGCGCCCGGCGGCUCGAGCCCGGGUAAGUGGAGGAAGUCUGCAUGCCGCCGGGCGCCAUGCCUGCAGGUCGACUCUAGAAAACAUG” are -6.71 and under -7.58.
The corresponding values for “GGCUAGAACUAGUGGAUCCCCCGGCGCCCGGCGGCUCGAGCCCGGGUAAGUGCACGAAGUCUGCAUGCCGCCGGGCGCCAUGCCUGCAGGUCGACUCUAGAAAACAUG” are -7.84 and under -7.28.
In the same order, the values of “GGCUAGAACUAGUGGAUCCCCCGGCGCCCGGCGGCUCGAGCCCGGGUAAGUAGCAGUAGUCUGCAUGCCGCCGGGCGCCAUGCCUGCAGGUCGACUCUAGAAAACAUG” are -7.37 and -7.9.
With “GGCUAGAACUAGUGGAUCCCCCGGCGCCCGGCGGCUCGAGCCCGGGUAAGUGUAACAUGUCUGCAUGCCGCCGGGCGCCAUGCCUGCAGGUCGACUCUAGAAAACAUG”, the binding signal (log2 enrichment (interaction score)) in test [1] was -6.78; in test [3], -7.35.
The corresponding values for “GGCUAGAACUAGUGGAUCCCCCGGCGCCCGGCGGCUCGAGCCCGGGUAAGUACUCAUAGUCUGCAUGCCGCCGGGCGCCAUGCCUGCAGGUCGACUCUAGAAAACAUG” are -6.07 and -7.05.
As for “GGCUAGAACUAGUGGAUCCCCCGGCGCCCGGCGGCUCGAGCCCGGGUAAGUCUAAGGAGUCUGCAUGCCGCCGGGCGCCAUGCCUGCAGGUCGACUCUAGAAAACAUG”, the binding signal (log2 enrichment (interaction score)) in test [1] is under -7.36; in test [3], under -7.15.
The corresponding values for “GGCUAGAACUAGUGGAUCCCCCGGCGCCCGGCGGCUCGAGCCCGGGUAAGUAAACGUAGUCUGCAUGCCGCCGGGCGCCAUGCCUGCAGGUCGACUCUAGAAAACAUG” are -7.84 and under -7.82.
The corresponding values for “GGCUAGAACUAGUGGAUCCCCCGGCGCCCGGCGGCUCGAGCCCGGGUAAGUAGACGAAGUCUGCAUGCCGCCGGGCGCCAUGCCUGCAGGUCGACUCUAGAAAACAUG” are under -7.76 and -7.06.
As to “GGCUAGAACUAGUGGAUCCCCCGGCGCCCGGCGGCUCGAGCCCGGGUAAGUGGCACAAGUCUGCAUGCCGCCGGGCGCCAUGCCUGCAGGUCGACUCUAGAAAACAUG”, the binding signal (log2 enrichment (interaction score)) in test [1] was -6.37; in test [2], -3.3; in test [3], under -7.14.
In the case of “GGCUAGAACUAGUGGAUCCCCCGGCGCCCGGCGGCUCGAGCCCGGGUAAGUGUUCAUUGUCUGCAUGCCGCCGGGCGCCAUGCCUGCAGGUCGACUCUAGAAAACAUG”, the binding signal (log2 enrichment (interaction score)) in test [1] was -7.34; in test [3], -7.61.
Turning to “GGCUAGAACUAGUGGAUCCCCCGGCGCCCGGCGGCUCGAGCCCGGGUAAGUGCUCGUAGUCUGCAUGCCGCCGGGCGCCAUGCCUGCAGGUCGACUCUAGAAAACAUG”, the binding signal (log2 enrichment (interaction score)) in test [1] is -6.09; in test [2], -2.54; in test [3] it was under -7.11.
Turning to “GGCUAGAACUAGUGGAUCCCCCGGCGCCCGGCGGCUCGAGCCCGGGUAAGUUGAUUUAGUCUGCAUGCCGCCGGGCGCCAUGCCUGCAGGUCGACUCUAGAAAACAUG”, the results for the binding signal (log2 enrichment (interaction score)) in test [1] and in test [3] were -5.71 and -7.62, respectively.
The corresponding values for “GGCUAGAACUAGUGGAUCCCCCGGCGCCCGGCGGCUCGAGCCCGGGUAAGUUGAUGUUGUCUGCAUGCCGCCGGGCGCCAUGCCUGCAGGUCGACUCUAGAAAACAUG” are under -6.97 and -8.28.
Turning to “GGCUAGAACUAGUGGAUCCCCCGGCGCCCGGCGGCUCGAGCCCGGGUAAGUUGUCGUAGUCUGCAUGCCGCCGGGCGCCAUGCCUGCAGGUCGACUCUAGAAAACAUG”, the binding signal (log2 enrichment (interaction score)) is -7.01 in test [1] and -8.84 in test [3].
As to “GGCUAGAACUAGUGGAUCCCCCGGCGCCCGGCGGCUCGAGCCCGGGUAAGUAGAGGUAGUCUGCAUGCCGCCGGGCGCCAUGCCUGCAGGUCGACUCUAGAAAACAUG”, the binding signal (log2 enrichment (interaction score)) was under -7.32 in test [1] and under -7.14 in test [3].
With “GGCUAGAACUAGUGGAUCCCCCGGCGCCCGGCGGCUCGAGCCCGGGUAAGUUGAUGCAGUCUGCAUGCCGCCGGGCGCCAUGCCUGCAGGUCGACUCUAGAAAACAUG”, the binding signal (log2 enrichment (interaction score)) in test [1] was -8.27; in test [3], under -8.17.
As to “GGCUAGAACUAGUGGAUCCCCCGGCGCCCGGCGGCUCGAGCCCGGGUAAGUGUGACUCGUCUGCAUGCCGCCGGGCGCCAUGCCUGCAGGUCGACUCUAGAAAACAUG”, the figures for the binding signal (log2 enrichment (interaction score)) in test [1] and in test [3] were -7.19 and under -8.08, respectively.
The corresponding values for “GGCUAGAACUAGUGGAUCCCCCGGCGCCCGGCGGCUCGAGCCCGGGUAAGAGUAAGUGGUCUGCAUGCCGCCGGGCGCCAUGCCUGCAGGUCGACUCUAGAAAACAUG” are -6.96 and under -7.59.
For “GGCUAGAACUAGUGGAUCCCCCGGCGCCCGGCGGCUCGAGCCCGGGUAAGUGAAAACUGUCUGCAUGCCGCCGGGCGCCAUGCCUGCAGGUCGACUCUAGAAAACAUG”, the binding signal (log2 enrichment (interaction score)) was -5.78 in test [1] and -7.84 in test [3].
On to “GGCUAGAACUAGUGGAUCCCCCGGCGCCCGGCGGCUCGAGCCCGGGUAAGUGCGAAUAGUCUGCAUGCCGCCGGGCGCCAUGCCUGCAGGUCGACUCUAGAAAACAUG”, for which the binding signal (log2 enrichment (interaction score)) in test [1] is under -6.74; in test [3], -7.38.
With “GGCUAGAACUAGUGGAUCCCCCGGCGCCCGGCGGCUCGAGCCCGGGUAAGUUCAAAUAGUCUGCAUGCCGCCGGGCGCCAUGCCUGCAGGUCGACUCUAGAAAACAUG”, the values for the binding signal (log2 enrichment (interaction score)) in test [1], in test [3] and in test [4] were -6.07, -7.67 and -1.39, respectively.
As to “GGCUAGAACUAGUGGAUCCCCCGGCGCCCGGCGGCUCGAGCCCGGGUAAGUGUUAAUCGUCUGCAUGCCGCCGGGCGCCAUGCCUGCAGGUCGACUCUAGAAAACAUG”, the binding signal (log2 enrichment (interaction score)) in test [1] is -8.29; in test [4], -0.77.
As for “GGCUAGAACUAGUGGAUCCCCCGGCGCCCGGCGGCUCGAGCCCGGGUAAGACGGAAUCGUCUGCAUGCCGCCGGGCGCCAUGCCUGCAGGUCGACUCUAGAAAACAUG”, the binding signal (log2 enrichment (interaction score)) in test [5] is -1.07.
As to “GGCUAGAACUAGUGGAUCCCCCGGCGCCCGGCGGCUCGAGCCCGGGUAAGGUGAAUUAGUCUGCAUGCCGCCGGGCGCCAUGCCUGCAGGUCGACUCUAGAAAACAUG”, in test [5], the binding signal (log2 enrichment (interaction score)) was -1.95.
On the same count and under the same terms, under “GGCUAGAACUAGUGGAUCCCCCGGCGCCCGGCGGCUCGAGCCCGGGUAAGUGCAUGAGGUCUGCAUGCCGCCGGGCGCCAUGCCUGCAGGUCGACUCUAGAAAACAUG” stands under -0.23.
Turning to “GGCUAGAACUAGUGGAUCCCCCGGCGCCCGGCGGCUCGAGCCCGGGUAAGUCUGAGUAGUCUGCAUGCCGCCGGGCGCCAUGCCUGCAGGUCGACUCUAGAAAACAUG”, the binding signal (log2 enrichment (interaction score)) in test [1] was -8.04; in test [3], -6.87; in test [4], -1.45.
Take “GGCUAGAACUAGUGGAUCCCCCGGCGCCCGGCGGCUCGAGCCCGGGUAAGUUUAAAGGGUCUGCAUGCCGCCGGGCGCCAUGCCUGCAGGUCGACUCUAGAAAACAUG”: the binding signal (log2 enrichment (interaction score)) in test [5] is -1.3.
